From the supplement of paper PMC11006884
The entries are a selection whose mix differs from that of the whole data set.

Sequences of proteins named here, by UniProt entry; tags and fusion partners are left off. A change or cut given only in a name is not applied to a line headed by its entry.
UniProt P49327, whole entry, looked up: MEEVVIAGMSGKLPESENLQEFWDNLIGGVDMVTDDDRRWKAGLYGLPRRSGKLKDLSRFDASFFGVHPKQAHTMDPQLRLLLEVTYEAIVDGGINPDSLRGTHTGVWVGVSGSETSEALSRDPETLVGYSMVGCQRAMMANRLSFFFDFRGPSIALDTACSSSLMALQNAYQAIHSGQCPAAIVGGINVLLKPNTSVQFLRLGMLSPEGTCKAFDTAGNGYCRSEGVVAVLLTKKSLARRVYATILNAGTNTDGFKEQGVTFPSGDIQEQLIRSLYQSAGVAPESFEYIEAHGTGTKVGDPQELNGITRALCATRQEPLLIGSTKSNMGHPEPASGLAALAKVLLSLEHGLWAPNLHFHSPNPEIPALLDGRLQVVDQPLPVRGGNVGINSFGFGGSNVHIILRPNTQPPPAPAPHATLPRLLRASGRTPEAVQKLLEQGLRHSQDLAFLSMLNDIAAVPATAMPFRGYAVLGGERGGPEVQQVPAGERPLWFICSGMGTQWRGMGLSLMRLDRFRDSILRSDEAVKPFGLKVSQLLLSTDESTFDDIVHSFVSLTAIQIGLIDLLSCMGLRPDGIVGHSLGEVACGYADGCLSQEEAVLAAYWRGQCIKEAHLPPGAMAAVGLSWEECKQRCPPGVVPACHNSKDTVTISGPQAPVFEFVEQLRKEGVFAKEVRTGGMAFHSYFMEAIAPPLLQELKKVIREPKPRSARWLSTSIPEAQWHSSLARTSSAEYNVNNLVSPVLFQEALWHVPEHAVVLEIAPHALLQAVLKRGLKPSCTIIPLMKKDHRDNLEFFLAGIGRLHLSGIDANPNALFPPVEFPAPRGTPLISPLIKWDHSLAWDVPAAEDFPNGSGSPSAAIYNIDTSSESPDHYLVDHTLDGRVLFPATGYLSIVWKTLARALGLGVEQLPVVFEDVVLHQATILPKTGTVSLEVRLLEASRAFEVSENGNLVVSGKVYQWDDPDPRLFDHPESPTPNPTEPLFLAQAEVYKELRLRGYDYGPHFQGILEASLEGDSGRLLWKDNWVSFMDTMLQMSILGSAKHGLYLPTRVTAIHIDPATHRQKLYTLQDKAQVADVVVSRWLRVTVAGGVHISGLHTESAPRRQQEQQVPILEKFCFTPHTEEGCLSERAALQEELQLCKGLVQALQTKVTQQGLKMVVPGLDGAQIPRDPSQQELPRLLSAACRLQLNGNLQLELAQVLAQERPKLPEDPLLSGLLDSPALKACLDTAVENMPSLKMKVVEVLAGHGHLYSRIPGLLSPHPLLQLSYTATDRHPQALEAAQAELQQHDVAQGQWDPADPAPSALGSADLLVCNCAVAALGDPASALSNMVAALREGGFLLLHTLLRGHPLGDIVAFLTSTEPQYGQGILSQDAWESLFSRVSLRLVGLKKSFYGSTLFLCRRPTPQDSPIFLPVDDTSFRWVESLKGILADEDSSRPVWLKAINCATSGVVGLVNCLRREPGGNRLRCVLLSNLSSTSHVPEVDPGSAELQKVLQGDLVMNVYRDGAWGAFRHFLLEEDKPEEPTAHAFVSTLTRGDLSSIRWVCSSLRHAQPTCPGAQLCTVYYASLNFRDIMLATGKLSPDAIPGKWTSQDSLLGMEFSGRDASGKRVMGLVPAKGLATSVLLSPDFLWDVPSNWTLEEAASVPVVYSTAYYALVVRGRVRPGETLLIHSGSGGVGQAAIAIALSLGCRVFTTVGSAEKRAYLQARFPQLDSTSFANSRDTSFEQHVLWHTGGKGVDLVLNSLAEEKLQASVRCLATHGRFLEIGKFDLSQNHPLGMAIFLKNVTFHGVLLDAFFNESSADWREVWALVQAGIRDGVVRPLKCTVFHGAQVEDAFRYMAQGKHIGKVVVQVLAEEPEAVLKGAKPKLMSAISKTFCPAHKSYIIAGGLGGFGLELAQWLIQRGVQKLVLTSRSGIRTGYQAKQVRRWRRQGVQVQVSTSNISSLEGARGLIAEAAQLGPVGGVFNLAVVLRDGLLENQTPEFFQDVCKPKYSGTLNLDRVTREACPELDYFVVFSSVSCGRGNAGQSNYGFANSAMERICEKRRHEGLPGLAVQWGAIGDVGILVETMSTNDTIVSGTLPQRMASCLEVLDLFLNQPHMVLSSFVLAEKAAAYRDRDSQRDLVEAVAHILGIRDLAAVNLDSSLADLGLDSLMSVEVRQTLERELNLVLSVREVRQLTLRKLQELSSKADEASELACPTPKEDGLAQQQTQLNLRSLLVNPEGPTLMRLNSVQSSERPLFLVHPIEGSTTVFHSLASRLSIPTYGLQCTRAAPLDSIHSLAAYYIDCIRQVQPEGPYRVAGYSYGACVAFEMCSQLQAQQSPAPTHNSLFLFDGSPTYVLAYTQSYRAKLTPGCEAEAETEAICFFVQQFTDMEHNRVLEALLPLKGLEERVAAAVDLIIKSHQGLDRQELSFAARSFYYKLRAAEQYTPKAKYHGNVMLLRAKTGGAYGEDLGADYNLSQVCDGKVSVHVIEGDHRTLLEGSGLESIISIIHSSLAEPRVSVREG
UniProt P48059, whole entry, looked up: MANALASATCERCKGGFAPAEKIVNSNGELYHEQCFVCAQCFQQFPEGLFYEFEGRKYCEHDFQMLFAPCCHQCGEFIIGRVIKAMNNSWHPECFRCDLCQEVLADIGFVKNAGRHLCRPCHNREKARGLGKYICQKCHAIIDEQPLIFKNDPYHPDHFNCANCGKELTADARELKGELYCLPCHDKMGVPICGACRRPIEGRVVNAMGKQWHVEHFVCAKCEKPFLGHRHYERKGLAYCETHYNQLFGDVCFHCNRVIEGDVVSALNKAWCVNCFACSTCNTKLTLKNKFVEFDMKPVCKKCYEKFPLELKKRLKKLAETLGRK
UniProt P50990: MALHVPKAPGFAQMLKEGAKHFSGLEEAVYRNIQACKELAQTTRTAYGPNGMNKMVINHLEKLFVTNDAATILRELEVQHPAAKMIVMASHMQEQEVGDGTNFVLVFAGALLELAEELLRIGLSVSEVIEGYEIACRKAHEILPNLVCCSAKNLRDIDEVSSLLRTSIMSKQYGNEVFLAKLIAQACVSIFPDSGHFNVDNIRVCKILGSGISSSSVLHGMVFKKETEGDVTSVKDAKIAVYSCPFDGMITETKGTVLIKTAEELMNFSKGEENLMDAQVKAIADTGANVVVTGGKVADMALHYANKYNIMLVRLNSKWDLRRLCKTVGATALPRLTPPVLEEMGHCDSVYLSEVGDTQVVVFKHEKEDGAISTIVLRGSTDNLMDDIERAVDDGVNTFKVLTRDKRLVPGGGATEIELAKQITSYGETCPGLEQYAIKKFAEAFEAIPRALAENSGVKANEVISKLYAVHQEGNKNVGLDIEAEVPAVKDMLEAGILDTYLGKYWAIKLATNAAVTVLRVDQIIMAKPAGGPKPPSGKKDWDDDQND
UniProt P48047: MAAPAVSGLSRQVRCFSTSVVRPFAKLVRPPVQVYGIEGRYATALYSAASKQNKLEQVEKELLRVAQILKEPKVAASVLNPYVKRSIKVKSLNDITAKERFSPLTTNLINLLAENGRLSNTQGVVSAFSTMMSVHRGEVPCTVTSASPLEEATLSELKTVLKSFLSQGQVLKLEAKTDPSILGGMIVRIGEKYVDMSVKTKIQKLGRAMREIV
UniProt P50851: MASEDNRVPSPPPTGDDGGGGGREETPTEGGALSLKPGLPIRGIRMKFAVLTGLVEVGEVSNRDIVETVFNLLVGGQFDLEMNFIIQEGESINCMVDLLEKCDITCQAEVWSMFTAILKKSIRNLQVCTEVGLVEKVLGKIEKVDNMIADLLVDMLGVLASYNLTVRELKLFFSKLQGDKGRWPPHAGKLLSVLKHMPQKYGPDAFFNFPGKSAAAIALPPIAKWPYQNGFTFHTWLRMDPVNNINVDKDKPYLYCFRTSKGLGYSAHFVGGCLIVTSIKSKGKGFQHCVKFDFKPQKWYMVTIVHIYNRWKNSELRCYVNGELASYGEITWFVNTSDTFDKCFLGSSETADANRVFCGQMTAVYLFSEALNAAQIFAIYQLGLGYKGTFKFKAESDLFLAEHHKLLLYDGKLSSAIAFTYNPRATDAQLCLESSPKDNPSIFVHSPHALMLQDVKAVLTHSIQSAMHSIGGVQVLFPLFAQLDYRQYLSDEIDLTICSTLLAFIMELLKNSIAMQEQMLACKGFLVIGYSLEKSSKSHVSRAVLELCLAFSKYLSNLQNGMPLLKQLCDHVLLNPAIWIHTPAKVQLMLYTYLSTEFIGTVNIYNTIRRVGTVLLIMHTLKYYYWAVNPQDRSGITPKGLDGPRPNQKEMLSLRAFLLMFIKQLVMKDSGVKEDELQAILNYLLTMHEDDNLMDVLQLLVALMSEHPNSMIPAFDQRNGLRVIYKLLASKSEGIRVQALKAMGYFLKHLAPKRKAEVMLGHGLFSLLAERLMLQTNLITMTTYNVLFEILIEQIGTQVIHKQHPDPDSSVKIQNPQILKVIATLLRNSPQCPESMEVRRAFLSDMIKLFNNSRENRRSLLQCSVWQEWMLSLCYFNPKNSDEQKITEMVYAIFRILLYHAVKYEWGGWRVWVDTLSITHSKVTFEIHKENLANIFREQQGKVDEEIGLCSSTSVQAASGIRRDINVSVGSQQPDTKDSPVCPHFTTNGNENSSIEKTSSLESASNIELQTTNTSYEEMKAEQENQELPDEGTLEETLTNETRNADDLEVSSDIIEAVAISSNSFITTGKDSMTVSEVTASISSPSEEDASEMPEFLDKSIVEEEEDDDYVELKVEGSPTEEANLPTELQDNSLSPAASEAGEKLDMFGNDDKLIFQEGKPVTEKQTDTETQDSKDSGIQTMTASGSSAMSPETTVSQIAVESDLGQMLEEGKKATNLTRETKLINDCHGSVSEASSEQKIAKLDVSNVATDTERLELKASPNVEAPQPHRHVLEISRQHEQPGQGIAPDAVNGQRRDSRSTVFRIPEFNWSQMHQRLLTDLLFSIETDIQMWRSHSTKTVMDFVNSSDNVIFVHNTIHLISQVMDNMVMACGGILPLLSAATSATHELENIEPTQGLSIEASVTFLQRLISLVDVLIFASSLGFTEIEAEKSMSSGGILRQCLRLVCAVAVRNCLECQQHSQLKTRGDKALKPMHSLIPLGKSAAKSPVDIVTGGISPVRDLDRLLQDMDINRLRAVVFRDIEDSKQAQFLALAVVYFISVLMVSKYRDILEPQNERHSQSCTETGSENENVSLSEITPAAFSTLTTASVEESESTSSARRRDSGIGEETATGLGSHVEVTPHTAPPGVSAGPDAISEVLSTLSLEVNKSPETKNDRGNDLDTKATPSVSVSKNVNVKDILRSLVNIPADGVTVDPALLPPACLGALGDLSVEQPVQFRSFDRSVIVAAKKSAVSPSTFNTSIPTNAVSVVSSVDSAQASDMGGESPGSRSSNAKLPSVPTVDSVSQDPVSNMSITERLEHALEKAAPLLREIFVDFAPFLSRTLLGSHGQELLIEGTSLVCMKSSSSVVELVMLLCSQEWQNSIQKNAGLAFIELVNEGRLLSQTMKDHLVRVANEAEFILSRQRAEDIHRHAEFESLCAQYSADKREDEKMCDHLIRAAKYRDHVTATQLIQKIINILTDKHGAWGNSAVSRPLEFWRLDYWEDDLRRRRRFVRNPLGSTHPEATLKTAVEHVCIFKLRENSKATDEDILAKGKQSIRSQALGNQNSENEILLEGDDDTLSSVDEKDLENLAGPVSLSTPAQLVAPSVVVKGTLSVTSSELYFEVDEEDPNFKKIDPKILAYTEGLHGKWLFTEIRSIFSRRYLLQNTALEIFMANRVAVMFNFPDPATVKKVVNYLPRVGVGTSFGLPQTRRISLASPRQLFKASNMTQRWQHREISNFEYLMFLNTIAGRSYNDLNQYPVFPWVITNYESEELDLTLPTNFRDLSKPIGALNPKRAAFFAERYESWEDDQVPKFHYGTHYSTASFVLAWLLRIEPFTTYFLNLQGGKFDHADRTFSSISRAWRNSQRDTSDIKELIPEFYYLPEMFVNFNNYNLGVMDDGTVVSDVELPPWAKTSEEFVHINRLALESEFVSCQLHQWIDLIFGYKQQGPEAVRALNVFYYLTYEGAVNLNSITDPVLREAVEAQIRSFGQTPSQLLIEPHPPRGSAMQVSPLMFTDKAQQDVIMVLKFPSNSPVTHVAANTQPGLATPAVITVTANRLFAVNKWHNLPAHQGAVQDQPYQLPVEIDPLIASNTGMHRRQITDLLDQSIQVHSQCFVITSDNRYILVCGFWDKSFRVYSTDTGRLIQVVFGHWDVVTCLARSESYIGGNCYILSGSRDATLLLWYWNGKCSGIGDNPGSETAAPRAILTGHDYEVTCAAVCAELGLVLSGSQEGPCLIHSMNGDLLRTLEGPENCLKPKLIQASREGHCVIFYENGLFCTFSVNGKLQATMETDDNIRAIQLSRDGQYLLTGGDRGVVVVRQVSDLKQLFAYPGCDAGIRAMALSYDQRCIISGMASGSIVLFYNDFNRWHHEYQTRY

Compound: COC(=O)C#Cc1ccccc1 [methyl 3-phenylpropiolate]
Experiment: log2 ratio of iodoacetamide-alkyne labeling of the cysteine site, DMSO over compound (competition); higher = stronger covalent engagement of the cysteine by the compound, active = 1 or more
Conditions: 500 µM; treatment time 1 h; system: HEK293T cell lysate
Summary of the method: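 Reporter intensities give each cysteine's log2 competition ratio as the mean of control channels over the mean of compound channels. The samples were HEK293T lysate (2 mg/mL) given vehicle or electrophile (500 µM, 1 h, ambient temperature), then iodoacetamide alkyne (1 h), followed by click coupling to sCIP-TMT reagents, pooling, trypsin digestion overnight at 37 °C, streptavidin enrichment, acid elution, Orbitrap Eclipse LC-MS/MS with FAIMS and FragPipe quantification. Duplicate channels and three replicates were run, and cysteines quantified in only one replicate were discarded.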

log2 ratio of iodoacetamide-alkyne labeling, inactive:
FASN C1992 (UniProt P49327) 0.0894
AARS C947 (UniProt P49588) -0.112
CAPZB C206 (UniProt P47756) 0.316
METAP2 C121 (UniProt P50579) 0.643
UTRN C2185 (UniProt P46939) 0.26
RANBP2 C1296 (UniProt P49792) 0.543
RANBP2 C206 (UniProt P49792) 0.511
CCT3 C372 (UniProt P49368) 0.382
LIMS1 C121 (UniProt P48059) 0.19
GMPS C489 (UniProt P49915) 0.0878
CCT8 C187 (UniProt P50990) 0.172
PRIM1 C354 (UniProt P49642) 0.0608
NDUFV1 C425 (UniProt P49821) 0.283
UniProt P48047_C141 0.345
RECQL C49 (UniProt P46063) 0.0739
FXR2 C87 (UniProt P51116) 0.101
RPL34 C83 (UniProt P49207) 0.281
CCT3 C475 (UniProt P49368) 0.185
QARS C556 (UniProt P47897) -0.102
IRAK1 C43 (UniProt P51617) 0.531
CCT8 C149 (UniProt P50990) 0.0525
LIMS1 C138 (UniProt P48059) 0.0987
MSH2 C843 (UniProt P43246) 0.362
FASN C313 (UniProt P49327) 0.093
KNTC1 C767 (UniProt P50748) 0.0315
GDI2 C202 (UniProt P50395) -0.0158
MSH2 C873 (UniProt P43246) 0.859
MAP1B C382 (UniProt P46821) 0.848
IDH2 C418 (UniProt P48735) 0.306
FASN C1186 (UniProt P49327) -0.0549
MKI67 C1843 (UniProt P46013) 0.392
UniProt P49840_C262 0.12
PCYT1A C37 (UniProt P49585) 0.291
RANGAP1 C573 (UniProt P46060) -0.012
FXR1 C77 (UniProt P51114) 0.0364
LRBA C1563 (UniProt P50851) 0.628

Looked up one by one from above, 2 records:
log2 ratio of iodoacetamide-alkyne labeling, inactive:
CCT8 C149 (UniProt P50990) 0.0525
UniProt P49840_C262 0.12
